Measurements as given in the supplement of paper PMC12872613.
Where a name gives a salt, the structure may show the parent alone. The list shows a part of the results. Cut-off read from the data, not from the text of the source: active = 0.7 or more and inactive = the rest. Most values come without repeats; read them as rough.

Tested on: MiaPaCa-2 CLSA-25
Assay: cell death relative to DMSO vehicle (fraction); higher = more cytotoxic
Conditions: 5 µM; treatment time 48 h; medium cystine 25 µM

SMILES	cell death
Nc1ccc(C(=O)O)c(O)c1 [Aminopar]	inactive: 0.242
C[N+](C)(C)CC(O)CC(=O)[O-] (racemic) [DL-Carnitine]	inactive: 0.102
C=CC1=C(C)/C(=C/c2[nH]c(Cc3[nH]c(/C=C4\NC(=O)C(C)=C4C=C)c(C)c3CCC(=O)O)c(CCC(=O)O)c2C)NC1=O [Bilirubin]	inactive: 0.12
O=C(CCN1CCN(C(=O)OCc2cc(Cl)cc(Cl)c2)CC1)c1ccc2[nH]c(=O)oc2c1	inactive: 0.0511
C[N+](C)(C)C[C@H](O)CC(=O)O [L-Carnitine hydrochloride]	inactive: 0.232
Nc1cc(-c2ccncc2)c[nH]c1=O [Amrinone]	inactive: -0.0118
CCCCC(=O)N(Cc1ccc(-c2ccccc2-c2nnn[nH]2)cc1)[C@H](C(=O)O)C(C)C.CCOC(=O)[C@H](C)C[C@@H](Cc1ccc(-c2ccccc2)cc1)NC(=O)CCC(=O)O	inactive: 0.593
C=C1/C(=C\C=C2/CCC[C@]3(C)[C@@H]([C@H](C)CCCC(C)(C)O)CC[C@@H]23)C[C@@H](O)C[C@@H]1O [Calcitriol]	inactive: 0.177
O=C(O)c1cc(-c2ccccc2)nc2ccccc12 [Cinchophen]	inactive: -0.0242
CC(=O)[C@H]1CC[C@H]2[C@@H]3C[C@H](C)C4=CC(=O)CC[C@]4(C)[C@H]3[C@@H](O)C[C@]12C [Medrysone]	inactive: 0.0524
Cc1c(C)c2c(c(C)c1O)CC[C@@](C)(CCC[C@H](C)CCC[C@H](C)CCCC(C)C)O2 [Vitamin E]	inactive: 0.134
CC(C)(O)CNc1nc(Nc2ccnc(C(F)(F)F)c2)nc(-c2cccc(C(F)(F)F)n2)n1 [Enasidenib]	inactive: 0.163
CC(C)(Oc1ccc(C(=O)c2ccc(Cl)cc2)cc1)C(=O)O [Fenofibric acid]	inactive: 0.0431
COc1cccc(-c2ccc(NC(=O)C3=C(C(=O)O)CCC3)c(F)c2)c1 [Vidofludimus]	inactive: 0.539
NCCc1c[nH]c2ccccc12 [Tryptamine]	inactive: 0.0704
COc1ccc(-c2nc3cc(C4=NNC(=O)CC4C)ccc3[nH]2)cc1 (stereo unspecified) [Pimobendan]	inactive: 0.591
Cc1[nH]c(=O)c(C#N)cc1-c1ccc2nccn2c1 [Olprinone]	inactive: 0.533
COc1ccc(NC(=O)c2ccc(C(=N)N(C)C)cc2)c(C(=O)Nc2ccc(Cl)cn2)c1 [Betrixaban]	inactive: 0.208
CCN(CC)CCOC(=O)C(c1ccccc1)c1ccccc1 [Adiphenine hydrochloride]	inactive: 0.00642
C[C@H](O)C(=O)O [L-Lactic acid]	inactive: 0.55
O=c1oc2ccccc2c(O)c1Cc1c(O)c2ccccc2oc1=O [Dicumarol]	inactive: 0.123
C[C@H](CCC(=O)O)[C@H]1CC[C@H]2[C@@H]3C(=O)C[C@@H]4CC(=O)CC[C@]4(C)[C@H]3CC(=O)[C@]12C [Sodium dehydrocholate]	inactive: 0.0391

SMILES	cell death
COC(=O)c1sccc1S(=O)(=O)Nc1ccc(Nc2ccccc2)cc1OC	inactive: 0.195
O=C(O)CNC(=O)c1nc(Cl)c2ccccc2c1O	inactive: 0.212
CC(C)(Sc1ccncc1-c1ccc(C#N)c2ccccc12)C(=O)O [Verinurad]	inactive: 0.326
O=C(O)c1c[nH]c2cc(Cl)c(-c3ccc(C4(O)CCC4)cc3)cc12	inactive: 0.054
C=CCc1ccc(O)c(-c2ccc(O)c(CC=C)c2)c1 [Honokiol]	inactive: 0.611
C[C@@H]1C[C@H]2[C@@H]3CCC4=CC(=O)C=C[C@]4(C)[C@@]3(Cl)[C@@H](O)C[C@]2(C)[C@@]1(OC(=O)c1ccco1)C(=O)CCl [Mometasone furoate]	inactive: 0.528
NCCS(=O)(=O)O [Taurine]	inactive: 0.0795
NCCCC[C@H](N[C@@H](CCc1ccccc1)C(=O)O)C(=O)N1CCC[C@H]1C(=O)O [Lisinopril dihydrate]	inactive: 0.0522
CC1(C)C(O[C@@H]2OC[C@@H](O)[C@H](O)[C@H]2O)CC[C@]23CC24CC[C@]2(C)[C@@H]([C@@]5(C)CC[C@@H](C(C)(C)O)O5)[C@H](O)C[C@@]2(C)C4C[C@@H](O[C@@H]2O[C@H](CO)[C@@H](O)[C@H](O)[C@H]2O)C13 (stereo partly specified) [Astragaloside IV]	inactive: -0.00615
CC1(C)O[C@@H]2C[C@H]3[C@@H]4CCC5=CC(=O)C=C[C@]5(C)[C@@]4(F)[C@@H](O)C[C@]3(C)[C@]2(C(=O)CO)O1 [Triamcinolone acetonide]	inactive: -0.00107
Nc1c(Br)cc(Br)cc1CN[C@H]1CC[C@H](O)CC1 [Ambroxol]	inactive: 0.183
c1ccc2[nH]c(-c3cscn3)nc2c1 [Thiabendazole]	inactive: 0.137
O=C(C=Cc1ccccc1)NC(NC(=S)Nc1ccc(Cl)cc1)C(Cl)(Cl)Cl (stereo unspecified)	inactive: 0.36
C[C@H](NC(=O)C(=O)Nc1ccccc1C(C)(C)C)C(=O)N[C@@H](CC(=O)O)C(=O)COc1c(F)c(F)cc(F)c1F [Emricasan]	inactive: 0.45
CC(C)(S)C(N)C(=O)O (racemic) [DL-Penicillamine]	inactive: 0.03
O=C(O[C@@H]1Cc2c(O)cc(O)cc2O[C@@H]1c1cc(O)c(O)c(O)c1)c1cc(O)c(O)c(O)c1 [(-)-Epigallocatechin Gallate]	inactive: 0.00401
COc1ccc(C(NC(=O)c2cnc(-c3cccnn3)[nH]c2=O)c2ccc(OC)cc2)cc1	active: 0.701
COCCCOc1cc(C[C@@H](C[C@H](N)[C@@H](O)C[C@H](C(=O)NCC(C)(C)C(N)=O)C(C)C)C(C)C)ccc1OC [Aliskiren hemifumarate]	inactive: 0.251
COc1ccccc1OCCNCC(O)COc1cccc2[nH]c3ccccc3c12 (stereo unspecified) [Carvedilol phosphate]	inactive: 0.0276
CNc1ccc([N+](=O)[O-])c(Nc2ccc3[nH]ncc3c2)n1	inactive: 0.0677
O=C(O)c1cc(F)c2nc(N3[C@@H]4CC[C@H]3C[C@@H](OCc3c(-c5ccccc5OC(F)(F)F)noc3C3CC3)C4)sc2c1 [Tropifexor]	inactive: 0.598
COc1ncnc(NS(=O)(=O)c2ccc(N)cc2)c1OC [Sulfadoxine]	inactive: 0.000251

SMILES	cell death
CC12CC3CC(C)(C1)CC(N)(C3)C2 [Memantine hydrochloride]	inactive: 0.192
COc1ccc(-c2coc3cc(O)cc(O)c3c2=O)cc1 [Biochanin A]	inactive: 0.318
CCOC(=O)c1ccc(NC2CCCCC2)c(N)c1 [Ferrostatin-1]	inactive: 0.246
CC(=O)N1CCN(c2ccc(OCC3COC(Cn4ccnc4)(c4ccc(Cl)cc4Cl)O3)cc2)CC1 (stereo unspecified) [Ketoconazole]	inactive: 0.633
CN(C)CCOC(=O)COc1ccc(Cl)cc1 [Meclofenoxate hydrochloride]	inactive: 0.0701
CCCCCOC1CCC(NC(=O)c2cnn3c(C)cc(C)nc23)CC1 (stereo unspecified)	inactive: 0.14
CC(C)C[C@H](NC(=O)[C@H](Cc1ccccc1)NC(=O)c1cnccn1)B(O)O [Bortezomib]	inactive: 0.505
CC(C)(C)[C@]1(O)CC2OC(=O)CC23C(=O)OC2OC(=O)[C@H](O)C231 (stereo partly specified) [Bilobalide]	inactive: 0.0356
CCCc1nc(C)c2c(=O)nc(-c3cc(S(=O)(=O)N4CCN(CC)CC4)ccc3OCC)[nH]n12 [Vardenafil hydrochloride trihydrate]	inactive: 0.072
COC(=O)[C@H]1[C@H]2C[C@@H]3c4[nH]c5cc(OC)ccc5c4CCN3C[C@H]2C[C@@H](OC(=O)c2cc(OC)c(OC)c(OC)c2)[C@@H]1OC [Reserpine]	inactive: 0.108
C[C@]12CCC(=O)C=C1CC[C@@H]1[C@@H]2C(=O)C[C@@]2(C)[C@H]1CC[C@]2(O)C(=O)CO [Cortisone]	inactive: 0.0774
Cn1cc(-c2ccncc2)c(-c2ccc(OCc3ccc4ccccc4n3)cc2)n1	inactive: 0.602
NC(N)=NCCCC(=O)O [4-Guanidinobutyric acid]	inactive: 0.31
C[C@]12CC[C@@H](O)C[C@@H]1CC[C@@H]1[C@@H]2CC[C@]2(C)C(=O)CC[C@@H]12 [Androsterone]	inactive: 0.272
COc1ccc2[nH]c(C(=O)N3CCC(CC(C)(C)O)CC3)cc2c1	active: 0.732
C[C@H](CCC(=O)O)[C@H]1CC[C@H]2[C@@H]3CC[C@@H]4C[C@H](O)CC[C@]4(C)[C@H]3CC[C@]12C [Lithocholic acid]	inactive: 0.263
Cc1ccc(Oc2nc3cc(-c4ccc(-c5ccccc5)cc4)c(Cl)cc3[nH]2)cc1C(=O)O	inactive: 0.488
CN(NC(=O)CC(=O)NN(C)C(=S)c1ccccc1)C(=S)c1ccccc1 [Elesclomol]	inactive: 0.0994
C[C@]12C=CC(=O)N[C@@H]1CC[C@@H]1[C@@H]2CC[C@]2(C)[C@@H](C(=O)Nc3cc(C(F)(F)F)ccc3C(F)(F)F)CC[C@@H]12 [Dutasteride]	inactive: 0.372
CCCCc1nc(Cl)c(CO)n1Cc1ccc(-c2ccccc2-c2nnn[nH]2)cc1 [Losartan]	inactive: 0.127
Cc1ncc(C[n+]2csc(CCO)c2C)c(N)n1 [Thiamine hydrochloride]	inactive: 0.131
O=S(=O)(O)Oc1c[nH]c2ccccc12 [Indoxyl sulfate potassium salt]	inactive: 0.0643

A different layout for 4 compounds above.
CCCc1nc(C)c2c(=O)nc(-c3cc(S(=O)(=O)N4CCN(CC)CC4)ccc3OCC)[nH]n12 [Vardenafil hydrochloride trihydrate]
  cell death: inactive: 0.072
COC(=O)[C@H]1[C@H]2C[C@@H]3c4[nH]c5cc(OC)ccc5c4CCN3C[C@H]2C[C@@H](OC(=O)c2cc(OC)c(OC)c(OC)c2)[C@@H]1OC [Reserpine]
  cell death: inactive: 0.108
C[C@]12CCC(=O)C=C1CC[C@@H]1[C@@H]2C(=O)C[C@@]2(C)[C@H]1CC[C@]2(O)C(=O)CO [Cortisone]
  cell death: inactive: 0.0774
Cn1cc(-c2ccncc2)c(-c2ccc(OCc3ccc4ccccc4n3)cc2)n1
  cell death: inactive: 0.602
